Experimental data: PubChem BioAssay AID686938 (Drosophila RNAi Screening Center, 2013)
In all, the deposit lists about 23,000 reagents; below is a random part of those with a known target gene and a result. In the full data, 75 (0.33%) got an active call. 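Raw plate signals without normalisation; calls rest on plate z-scores that were not deposited; ratio present for only 364 wells.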 Entries without a mark were called inactive. No sequences are given here. Not given: the dose of the treatment.

Screen: 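Fly genes required for calcium entry once internal stores are emptied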 (primary screen)
Cells: Drosophila S2R+ cells
Reagent: long dsRNA against Drosophila genes, about 0.25 µg dsRNA per well, roughly 10,000 cells
Duration: 5 days of knock-down before the calcium assay
Treatment: thapsigargin (SERCA pump blocker) to empty calcium stores; entry signal taken 4 min after adding it
Measurement: 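Per-well fluo-4 fluorescence in two replicates, unnormalised, measured in resting cells and 4 min after store depletion by the SERCA blocker thapsigargin; ratio of the two present in few wells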
Reading the numbers: calcium entry signal: higher = stronger calcium signal after store depletion; resting calcium signal: higher = higher resting calcium signal
Rule for the call: 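Called when the plate z-score of the entry-to-rest ratio, mean of duplicates, falls below −3; wells with low overall dye signal (Fmax z below −2) or more than five off-targets excluded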
Calls: active = strongly reduced calcium entry; inactive = no strong reduction

The first 2 records as a preview:
Idh3b (Isocitrate dehydrogenase 3b) [SID104195832] | calcium entry signal, replicate 1 (fluorescence units): 5.13e7; calcium entry signal, replicate 2 (fluorescence units): 3.09e7; resting calcium signal, replicate 1 (fluorescence units): 2.36e7; resting calcium signal, replicate 2 (fluorescence units): 1.44e7
CG15545 [SID104194875] | calcium entry signal, replicate 1 (fluorescence units): 3.94e7; calcium entry signal, replicate 2 (fluorescence units): 5.33e7; resting calcium signal, replicate 1 (fluorescence units): 2.00e7; resting calcium signal, replicate 2 (fluorescence units): 2.29e7

The listing, from the first entry:
Idh3b (Isocitrate dehydrogenase 3b) [SID104195832] | calcium entry signal, replicate 1 (fluorescence units): 5.13e7; calcium entry signal, replicate 2 (fluorescence units): 3.09e7; resting calcium signal, replicate 1 (fluorescence units): 2.36e7; resting calcium signal, replicate 2 (fluorescence units): 1.44e7
CG15545 [SID104194875] | calcium entry signal, replicate 1 (fluorescence units): 3.94e7; calcium entry signal, replicate 2 (fluorescence units): 5.33e7; resting calcium signal, replicate 1 (fluorescence units): 2.00e7; resting calcium signal, replicate 2 (fluorescence units): 2.29e7
alka (alkaliphile) [SID104185928] | calcium entry signal, replicate 1 (fluorescence units): 4.26e7; calcium entry signal, replicate 2 (fluorescence units): 3.91e7; resting calcium signal, replicate 1 (fluorescence units): 1.84e7; resting calcium signal, replicate 2 (fluorescence units): 1.64e7
Grip84 (Gamma-tubulin ring protein 84) [SID104200040] | calcium entry signal, replicate 1 (fluorescence units): 2.98e7; calcium entry signal, replicate 2 (fluorescence units): 2.62e7; resting calcium signal, replicate 1 (fluorescence units): 1.95e7; resting calcium signal, replicate 2 (fluorescence units): 1.26e7
sphe (spheroide) [SID104199995] | calcium entry signal, replicate 1 (fluorescence units): 2.46e7; calcium entry signal, replicate 2 (fluorescence units): 2.73e7; resting calcium signal, replicate 1 (fluorescence units): 1.28e7; resting calcium signal, replicate 2 (fluorescence units): 1.20e7
CG12516 [SID104194316] | calcium entry signal, replicate 1 (fluorescence units): 3.45e7; calcium entry signal, replicate 2 (fluorescence units): 5.40e7; resting calcium signal, replicate 1 (fluorescence units): 1.77e7; resting calcium signal, replicate 2 (fluorescence units): 2.17e7
CG17032 [SID104190033] | calcium entry signal, replicate 1 (fluorescence units): 5.42e7; calcium entry signal, replicate 2 (fluorescence units): 6.45e7; resting calcium signal, replicate 1 (fluorescence units): 2.58e7; resting calcium signal, replicate 2 (fluorescence units): 2.48e7
Dscam4 (Down syndrome cell adhesion molecule 4) [SID104188703] | calcium entry signal, replicate 1 (fluorescence units): 2.43e7; calcium entry signal, replicate 2 (fluorescence units): 2.56e7; resting calcium signal, replicate 1 (fluorescence units): 1.32e7; resting calcium signal, replicate 2 (fluorescence units): 1.16e7
Dscam4 (Down syndrome cell adhesion molecule 4) [SID104188705] | calcium entry signal, replicate 1 (fluorescence units): 2.69e7; calcium entry signal, replicate 2 (fluorescence units): 4.67e7; resting calcium signal, replicate 1 (fluorescence units): 1.35e7; resting calcium signal, replicate 2 (fluorescence units): 2.14e7
Dscam4 (Down syndrome cell adhesion molecule 4) [SID104189823] | calcium entry signal, replicate 1 (fluorescence units): 1.70e7; calcium entry signal, replicate 2 (fluorescence units): 3.73e7; resting calcium signal, replicate 1 (fluorescence units): 9.19e6; resting calcium signal, replicate 2 (fluorescence units): 1.65e7
Dscam4 (Down syndrome cell adhesion molecule 4) [SID104190121] | calcium entry signal, replicate 1 (fluorescence units): 1.20e7; calcium entry signal, replicate 2 (fluorescence units): 2.29e7; resting calcium signal, replicate 1 (fluorescence units): 7.84e6; resting calcium signal, replicate 2 (fluorescence units): 1.31e7
Dscam4 (Down syndrome cell adhesion molecule 4) [SID104190557] | calcium entry signal, replicate 1 (fluorescence units): 2.29e7; calcium entry signal, replicate 2 (fluorescence units): 4.00e7; resting calcium signal, replicate 1 (fluorescence units): 1.21e7; resting calcium signal, replicate 2 (fluorescence units): 1.92e7
